Test results as given in patent US20240269194A1, “COMPOSITIONS AND METHODS FOR ISLET CELL TRANSPLANTS” (City of Hope, priority 2021, published 2024).
For at least one compound, name, drawing or mass did not settle the structure.

Experiments:
NOD mice = assay: Insulin+ cells and insulitis in NOD mice given gastrin; assay type: in vivo, mouse; conditions: for inflammatory cell infiltration of islets: control islets >50% infiltration
human islets [1] = assay: qRT-PCR of inflammatory, apoptotic and other genes in long-term cultured human islets; assay type: cell-based
human islets [2] = assay: Luminex X-MAP assay of cytokines in conditioned medium of cultured human islets; assay type: cell-based; conditions: 2 weeks culture
[3] = test system: myocardial ischemia reperfusion injury; conditions: IRI in rats; cited from earlier work
T1D patients = assay type: in vivo, human
Description: Gastrin is a natural hormone that is secreted by the stomach and is involved in fetal pancreas development. […] Building on these observations, it was tested whether gastrin treatment will improve islet engraftment, induced beta cell expansion/function, and enhanced islet transplant outcomes in T1D individuals. A gastrin analogue (GAST-17) was produced and obtained FDA-IND approval to evaluate its safety and efficacy in a Phase I/II, prospective, single-arm trial to improve outcomes in T1D recipients undergoing a single islet transplant and two 30-day courses for GAST-17. The trial has been initiated with the first two treated individuals achieving insulin independence with roughly half of the islet dose normally required.
The success of clinical islet transplantation depends on transplantation of adequate islet mass and minimizing graft loss secondary to ischemia and inflammation. After infusion into the portal vein, islets are exposed to damaging inflammatory factors (the so-called instant blood-mediated inflammatory reaction, IBMIR). This involves activation of the complement and coagulation cascades, ultimately resulting in clot formation and infiltration of leukocytes into the islets. […]
Treatment course 1. […] Subjects are monitored for adverse effects and assessed for preliminary efficacy at 1, 2.5, and 6 months after starting the first course of GAST-17. […]

human islets [4] = assay: Propidium iodide staining of dead cells in human islets after 2 weeks culture; assay type: cell-based; conditions: 100 nM, islets from individuals without diabetes, vs control islets
[5] = test system: transplanted human islets; assay: Human islets transplanted to livers of NOD mice: 18F-TCE4 microPET, insulin staining, blood glucose; assay type: in vivo, mouse; conditions: islet transplant + gastrin vs islet transplant alone; preliminary analysis
Description: Isolated human islets were transplanted (Tx) to the livers of NOD mice followed by GAST-17 treatment for 30 days (150 μg/kg/dose, injected three times daily) (Tx+Treated, n=7) and compared to mice receiving islet transplant alone (Tx only, n=5) and untreated controls (Normal, n=5). After completion of treatment, whole mice and organs of interest were imaged (in vivo and ex vivo) with ^18F-TC-Exendin-4 (TCE4) using microPET and a high specific activity labeling technique developed at COH for targeting islets (49). […] Beta cell mass was calculated as percent beta cell area of the total cell surface area found on immunolabeled tissue sections. Data from 4 livers from mice treated with islet transplant alone (“−Gastrin”) and five livers from mice treated with islet transplant and gastrin treatment (“+Gastrin”) (˜32 slides per liver) were assessed.
Gastrin analogue, GATS-17, promotes expansion/neogenesis of transplanted human islets. Isolated human islets were transplanted (Tx) into livers of NOD/SCID mice followed by GAST-17 treatment for 30 days (150 μg/kg/dose, injected three times daily) (Tx+Treated, n=7) and compared to mice receiving islet transplant alone (Tx only, n=5) and untreated controls (Normal, n=5). […]

SMILES: CSCCC(NC(=O)C(Cc1c[nH]c2ccccc12)NC(=O)CNC(=O)C(Cc1ccc(O)cc1)NC(=O)C(C)NC(=O)C(CCC(=O)O)NC(=O)C(CCC(=O)O)NC(=O)C(CCC(=O)O)NC(=O)[C@H](CCC(=O)O)NC(=O)[C@H](CCC(=O)O)NC(=O)[C@H](CC(C)C)NC(=O)[C@H](Cc1c[nH]c2ccccc12)NC(=O)[C@@H]1CCCN1C(=O)CNC(=O)[C@@H](N)CCC(=O)O)C(=O)NC(CC(=O)O)C(=O)NC(Cc1ccccc1)C(N)=O (stereo in doubt) [gastrin]
- inflammatory cell infiltration of islets (NOD mice; 100 μg/kg): less infiltration
- inflammatory cell infiltration of islets (NOD mice; 600 μg/kg): little infiltrate
- numbers of insulin+ cells (NOD mice; 100, 300 and 600 μg/kg, 12 weeks): increased numbers of insulin+ cells in a dose-dependent manner
- inflammatory cell invasion in pancreatic islets (NOD mice; vs control animals): less
- mRNA levels of pro-inflammatory genes (human islets [1]; 2 weeks culture vs untreated islets): decreased mRNA levels of multiple pro-inflammatory genes
- expression of NGN3, nestin, urocortin3, PPY, and MAFB (human islets [1]; long-term islet exposure): increased expression of NGN3, nestin, urocortin3, PPY, and MAFB
- secreted cytokine IL-1 levels in conditioned medium (human islets [2]): markedly less
- interleukins 4, 6, 7, 8, 10 and 21 in conditioned medium (human islets [2]; data not shown): decreased
- myocardial function, injury markers, infarct size, cardiomyocyte apoptosis [3]: improved myocardial function and reduce myocardial injury markers, infarct size, and cardiomyocyte apoptosis
- insulin independence (T1D patients; first two T1D patients, single islet transplant <6,100 IEQ/kg): insulin independence was achieved
- Average reduction of blood glucose per transplanted 1000 islet equivalents/kg (T1D patients; two patients, IT with gastrin, up to 1 year follow up): 11.43 mg/dL
- dead cells (PI+ cells) (human islets [4]): fewer PI+ cells
- transplanted islet beta cell mass (percent beta cell area on immunolabeled liver sections) [5]: increased transplanted islet beta cell mass
